Laboratory results from paper PMC9513783.

The chains behind the UniProt entries cited, without tags or fusion partners.
UniProt O14744: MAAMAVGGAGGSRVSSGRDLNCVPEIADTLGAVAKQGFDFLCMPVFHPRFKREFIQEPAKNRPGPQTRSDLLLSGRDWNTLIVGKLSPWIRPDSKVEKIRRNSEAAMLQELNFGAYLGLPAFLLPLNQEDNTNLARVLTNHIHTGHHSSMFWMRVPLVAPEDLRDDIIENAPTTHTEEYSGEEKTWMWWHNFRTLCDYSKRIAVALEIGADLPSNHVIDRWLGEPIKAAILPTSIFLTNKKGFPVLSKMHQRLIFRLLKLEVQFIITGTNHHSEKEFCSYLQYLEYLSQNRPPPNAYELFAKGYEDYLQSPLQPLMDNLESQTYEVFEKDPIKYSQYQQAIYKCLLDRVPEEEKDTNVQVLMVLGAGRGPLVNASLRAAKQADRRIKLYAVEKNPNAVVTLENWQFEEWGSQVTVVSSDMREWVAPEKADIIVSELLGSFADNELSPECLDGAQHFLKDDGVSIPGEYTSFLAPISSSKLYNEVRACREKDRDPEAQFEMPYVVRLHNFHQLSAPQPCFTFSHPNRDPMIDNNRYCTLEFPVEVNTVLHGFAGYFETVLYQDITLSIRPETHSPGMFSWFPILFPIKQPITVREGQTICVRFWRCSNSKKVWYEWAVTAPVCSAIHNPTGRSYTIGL
UniProt P52732: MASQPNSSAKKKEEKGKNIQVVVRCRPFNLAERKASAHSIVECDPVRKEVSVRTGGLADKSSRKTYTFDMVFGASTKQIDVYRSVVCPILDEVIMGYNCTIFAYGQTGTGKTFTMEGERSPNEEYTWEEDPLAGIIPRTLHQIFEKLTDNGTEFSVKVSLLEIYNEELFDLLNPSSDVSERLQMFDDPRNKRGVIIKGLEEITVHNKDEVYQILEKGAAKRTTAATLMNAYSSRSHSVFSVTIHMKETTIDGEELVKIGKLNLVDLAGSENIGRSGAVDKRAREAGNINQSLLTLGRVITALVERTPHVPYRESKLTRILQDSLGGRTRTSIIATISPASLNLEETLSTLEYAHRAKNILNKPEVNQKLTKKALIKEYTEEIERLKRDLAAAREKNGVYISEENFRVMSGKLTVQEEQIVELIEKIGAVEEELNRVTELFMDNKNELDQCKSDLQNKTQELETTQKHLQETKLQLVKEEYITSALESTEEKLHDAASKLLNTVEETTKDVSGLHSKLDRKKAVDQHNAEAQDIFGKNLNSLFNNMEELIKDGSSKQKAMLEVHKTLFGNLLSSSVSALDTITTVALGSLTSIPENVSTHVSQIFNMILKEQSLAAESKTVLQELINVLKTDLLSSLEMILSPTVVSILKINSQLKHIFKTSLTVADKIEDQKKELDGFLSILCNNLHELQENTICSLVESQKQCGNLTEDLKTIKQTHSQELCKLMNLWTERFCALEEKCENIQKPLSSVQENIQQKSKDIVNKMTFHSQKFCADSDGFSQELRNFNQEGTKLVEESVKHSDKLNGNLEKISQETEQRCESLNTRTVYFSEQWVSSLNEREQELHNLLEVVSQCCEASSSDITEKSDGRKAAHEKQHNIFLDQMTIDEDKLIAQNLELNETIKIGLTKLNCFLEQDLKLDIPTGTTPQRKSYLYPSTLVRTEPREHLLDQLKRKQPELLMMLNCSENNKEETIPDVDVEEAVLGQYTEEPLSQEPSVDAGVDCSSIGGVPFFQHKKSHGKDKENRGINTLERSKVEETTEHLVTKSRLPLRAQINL
UniProt P68871: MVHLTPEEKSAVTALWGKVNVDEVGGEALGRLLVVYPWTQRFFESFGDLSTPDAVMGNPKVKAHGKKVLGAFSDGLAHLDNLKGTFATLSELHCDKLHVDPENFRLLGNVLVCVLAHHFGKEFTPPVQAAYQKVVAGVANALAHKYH

T1: Flag-tagged EWSR1(2-325)-ATF1(66-271) fusion (UniProt Q01844)
T1 sequence: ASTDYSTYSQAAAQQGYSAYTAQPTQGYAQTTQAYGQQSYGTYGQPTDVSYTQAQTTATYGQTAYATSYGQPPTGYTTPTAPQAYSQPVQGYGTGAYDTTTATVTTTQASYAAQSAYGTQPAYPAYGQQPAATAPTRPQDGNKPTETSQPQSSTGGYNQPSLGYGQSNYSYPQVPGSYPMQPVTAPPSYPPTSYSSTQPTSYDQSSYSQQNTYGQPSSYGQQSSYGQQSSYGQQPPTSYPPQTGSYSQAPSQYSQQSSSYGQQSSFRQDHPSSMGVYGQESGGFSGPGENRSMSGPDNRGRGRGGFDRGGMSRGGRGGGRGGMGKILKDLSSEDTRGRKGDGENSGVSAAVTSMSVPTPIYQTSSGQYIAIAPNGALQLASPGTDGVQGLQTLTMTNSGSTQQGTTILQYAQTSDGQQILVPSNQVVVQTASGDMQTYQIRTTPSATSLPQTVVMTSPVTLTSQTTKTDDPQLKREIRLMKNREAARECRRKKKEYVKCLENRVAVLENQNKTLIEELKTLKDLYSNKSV

B1: PPM1B (protein, UniProt O75688 1-479)
chain: MGAFLDKPKTEKHNAHGAGNGLRYGLSSMQGWRVEMEDAHTAVVGIPHGLEDWSFFAVYDGHAGSRVANYCSTHLLEHITTNEDFRAAGKSGSALELSVENVKNGIRTGFLKIDEYMRNFSDLRNGMDRSGSTAVGVMISPKHIYFINCGDSRAVLYRNGQVCFSTQDHKPCNPREKERIQNAGGSVMIQRVNGSLAVSRALGDYDYKCVDGKGPTEQLVSPEPEVYEILRAEEDEFIILACDGIWDVMSNEELCEYVKSRLEVSDDLENVCNWVVDTCLHKGSRDNMSIVLVCFSNAPKVSDEAVKKDSELDKHLESRVEEIMEKSGEEGMPDLAHVMRILSAENIPNLPPGGGLAGKRNVIEAVYSRLNPHRESDGASDEAEESGSQGKLVEALRQMRINHRGNYRQLLEEMLTSYRLAKVEGEESPAEPAATATSSNSDAGNPVTMQESHTESESGLAELDSSNEDAGTKMSGEKI
B2: PTGES3 (protein, UniProt Q15185 1-160)
chain: MQPASAKWYDRRDYVFIEFCVEDSKDVNVNFEKSKLTFSCLGGSDNFKHLNEIDLFHCIDPNDSKHKRTDRSILCCLRKGESGQSWPRLTKERAKLNWLSVDFNNWKDWEDDSDEDMSNFDRFSEMMNNMGGDEDVDLPEVDGADDDSQDSDDEKMPDLE

target: T1, Flag-tagged EWSR1(2-325)-ATF1(66-271) fusion; experiment: affinity purification with mass spectrometry; Flag-EWSR1-ATF1 expressed in HEK 293T; lysis buffer A (50 mM Tris, 5 mM EDTA, 150 mM NaCl, 1 mM DTT, 0.5% Nonidet P-40, pH 8.0); IP with anti-Flag (M2) or mouse IgG overnight at 4 C, protein A/G agarose; eluted with 1% SDS in PBS; LC-MS/MS

Row | Molecule | binding
1 | protein arginine methyltransferase 5 (from UniProt O14744 1-637) (enzyme) | binds
2 | KIF11 (from UniProt P52732 1-1056) | binds
3 | HBB (from UniProt P68871 1-147) | binds
4 | B1 | binds
5 | B2 | binds

No constants are given. Whether binding was seen depends on the method and setting. Binding seen in cells or lysates may run through a third protein. Here binding means that the protein was enriched with, or labelled near, the bait; the list need not be complete. Where a sequence is shown, tags or fusion partners need not be part of it.
